Data as given in PubChem BioAssay AID1159584 (Peter MacCallum Cancer Centre, 2016).
Test: 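Knock-downs that harm CDH1-null cells more than parental MCF10A cells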 (primary screen). Cell system: human MCF10A breast epithelial cells, parental and CDH1-null. Reagents: siRNA against human genes. Detection: 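Cell viability by CellTiter-Glo ATP luminescence, each line scaled to the mean of mock wells across plates, then CDH1-null over parental ratio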. Reading the numbers: CDH1-null / parental viability ratio: higher = CDH1-null cells survive relatively better than parental; CDH1-null viability vs mock: higher = more viable CDH1-null cells.
Here is an unselected part of about 18,000 reagents. Further read-outs or replicates are left out here. Not given: the amount of reagent, the time to read-out.

OR52D1 (olfactory receptor family 52 subfamily D member 1) gave CDH1-null / parental viability ratio 1.36; CDH1-null viability vs mock (fraction of mock) = 0.94.
Depletion of ADGRG4 (adhesion G protein-coupled receptor G4) resulted in: CDH1-null / parental viability ratio 0.99; CDH1-null viability vs mock (fraction of mock) = 0.98.
With knock-down of ECSIT (ECSIT signaling integrator) the results were CDH1-null / parental viability ratio 1.05; CDH1-null viability vs mock (fraction of mock) = 0.92.
EPC2 (enhancer of polycomb 2) scored CDH1-null / parental viability ratio 0.79; CDH1-null viability vs mock (fraction of mock) = 0.54.
ZNF366 (zinc finger protein 366) scored CDH1-null / parental viability ratio 1.53; CDH1-null viability vs mock (fraction of mock) = 0.52.
For RHOH (ras homolog family member H) the deposit lists CDH1-null / parental viability ratio 0.78; CDH1-null viability vs mock (fraction of mock) = 0.68.
MEFV (MEFV innate immunity regulator, pyrin) gave CDH1-null / parental viability ratio 0.82; CDH1-null viability vs mock (fraction of mock) = 0.59.
VCX3A (variable charge X-linked 3A) scored CDH1-null / parental viability ratio 1.08; CDH1-null viability vs mock (fraction of mock) = 0.93.
LYRM4 (LYR motif containing 4) gave CDH1-null / parental viability ratio 0.77; CDH1-null viability vs mock (fraction of mock) = 0.82.
DNMT1 (DNA methyltransferase 1) showed CDH1-null / parental viability ratio 0.99; CDH1-null viability vs mock (fraction of mock) = 0.75.
Against SCGB3A1 (secretoglobin family 3A member 1) the deposit lists CDH1-null / parental viability ratio 1.04; CDH1-null viability vs mock (fraction of mock) = 0.84.
With knock-down of ADPGK (ADP dependent glucokinase), the screen gave CDH1-null / parental viability ratio 0.96; CDH1-null viability vs mock (fraction of mock) = 0.99.
Against PRKCD (protein kinase C delta), the values are CDH1-null / parental viability ratio 1.07; CDH1-null viability vs mock (fraction of mock) = 0.86.
After knock-down of PLXNA2 (plexin A2) the results were CDH1-null / parental viability ratio 1.05; CDH1-null viability vs mock (fraction of mock) = 0.6.
With knock-down of CLDN9 (claudin 9) the results were CDH1-null / parental viability ratio 0.72; CDH1-null viability vs mock (fraction of mock) = 0.46.
After knock-down of FOXC1 (forkhead box C1) the results were CDH1-null / parental viability ratio 1.01; CDH1-null viability vs mock (fraction of mock) = 0.87.
Against GLIS2 (GLIS family zinc finger 2), the entry reads CDH1-null / parental viability ratio 1.07; CDH1-null viability vs mock (fraction of mock) = 0.98.
Against BTBD8 (BTB domain containing 8), the entry reads CDH1-null / parental viability ratio 0.93; CDH1-null viability vs mock (fraction of mock) = 0.82.
After knock-down of ARHGAP17 (Rho GTPase activating protein 17), the record shows CDH1-null / parental viability ratio 0.92; CDH1-null viability vs mock (fraction of mock) = 0.79.
For GSX1 (GS homeobox 1), the values are CDH1-null / parental viability ratio 0.91; CDH1-null viability vs mock (fraction of mock) = 0.86.
PLA2G10 (phospholipase A2 group X) scored CDH1-null / parental viability ratio 1.22; CDH1-null viability vs mock (fraction of mock) = 0.89.
After knock-down of TSNARE1 (t-SNARE domain containing 1) the results were CDH1-null / parental viability ratio 0.97; CDH1-null viability vs mock (fraction of mock) = 0.92.
After knock-down of C19orf12 (chromosome 19 open reading frame 12), the screen gave CDH1-null / parental viability ratio 0.89; CDH1-null viability vs mock (fraction of mock) = 0.55.
SYTL4 (synaptotagmin like 4) scored CDH1-null / parental viability ratio 0.93; CDH1-null viability vs mock (fraction of mock) = 0.88.
Against NAA10 (N-alpha-acetyltransferase 10, NatA catalytic subunit) the deposit lists CDH1-null / parental viability ratio 0.87; CDH1-null viability vs mock (fraction of mock) = 0.55.
Against MMP28 (matrix metallopeptidase 28) the deposit lists CDH1-null / parental viability ratio 1.62; CDH1-null viability vs mock (fraction of mock) = 0.94.
ANKRD12 (ankyrin repeat domain 12) gave CDH1-null / parental viability ratio 1.05; CDH1-null viability vs mock (fraction of mock) = 0.98.
COL28A1 (collagen type XXVIII alpha 1 chain) scored CDH1-null / parental viability ratio 0.79; CDH1-null viability vs mock (fraction of mock) = 0.62.
APPL2 showed CDH1-null / parental viability ratio 0.95; CDH1-null viability vs mock (fraction of mock) = 0.6.
Depletion of PJA1 (praja ring finger ubiquitin ligase 1) came out at: CDH1-null / parental viability ratio 1.06; CDH1-null viability vs mock (fraction of mock) = 1.07.
For JAM2 (junctional adhesion molecule 2), the values are CDH1-null / parental viability ratio 0.86; CDH1-null viability vs mock (fraction of mock) = 0.64.
KRTAP5-6 (keratin associated protein 5-6) gave CDH1-null / parental viability ratio 1.08; CDH1-null viability vs mock (fraction of mock) = 0.8.
Depletion of IFT38 (intraflagellar transport 38) gave: CDH1-null / parental viability ratio 0.56; CDH1-null viability vs mock (fraction of mock) = 0.42.
Silencing of ZSWIM3 (zinc finger SWIM-type containing 3) gave: CDH1-null / parental viability ratio 1.01; CDH1-null viability vs mock (fraction of mock) = 0.76.
Knock-down of THY1 (Thy-1 cell surface antigen) gave: CDH1-null / parental viability ratio 0.92; CDH1-null viability vs mock (fraction of mock) = 0.82.

As entered above:
For “CDH1-null / parental viability ratio”, DNMT1 (DNA methyltransferase 1) shows 0.99
ECSIT (ECSIT signaling integrator), CDH1-null viability vs mock (fraction of mock) → 0.92
